Data: patent publication US11497756B2, “Treatment regimen for cancers that are insensitive to BCL-2 inhibitors using the MCL-1 inhibitor alvocidib” (Sumitomo Pharma Oncology, Inc., priority 2017, dated 2022)
At least one structure is not confirmed: it was looked up by name or label, or the drawing left a doubt.

Experiments:
OCI-AML3 cells = assay: In vivo tumor growth, immune deficient mice injected with OCI-AML3 cells; settings: 100 mg/kg per os, once a day for 21 days, FIG. 3
Protocol: Alvocidib was used alone to test in vivo activity in OCI-AML3 cells. […] To test the in vivo activity, immune deficient mice injected with OCI-AML3 cells were treated with 2.5 mg/kg of alvocidib via intraperitoneal injection or 100 mg/kg of Venetoclax/ABT-199 per os (i.e., oral administration). Each treatment (i.e., alvocidib and Venetoclax/ABT-199) was administered once a day for 21 days.

[1] = test system: chronic lymphocytic leukemia (CLL); settings: cited from earlier work
[2] = test system: MCL-1 expression in MV-4-11 cells; assay: MCL-1 protein expression in MV-4-11 cells treated in vitro; assay type: cell-based; settings: 24 hour treatment, FIG. 2

SMILES | tumor volume relative to vehicle alone (OCI-AML3 cells) | patients showing disease progression ([1]; CLL, after 18 months) | patients showing no response ([1]; CLL) | patients with complete remission ([1]; CLL) | overall response rate ([1]; monotherapy in CLL, Phase I and Phase II) | MCL-1 expression [2]
CC1(C)CCC(CN2CCN(c3ccc(C(=O)NS(=O)(=O)c4ccc(NCC5CCOCC5)c([N+](=O)[O-])c4)c(Oc4cnc5[nH]ccc5c4)c3)CC2)=C(c2ccc(Cl)cc2)C1 [Venetoclax] | no decrease in tumor volume | ~50% | 20-30% | 8-20% | 70-79% | 
CCc1cnn2c(NCc3ccc[n+]([O-])c3)cc(N3CCCC[C@H]3CCO)nc12 [dinaciclib] |  |  |  |  |  | decreased MCL-1 expression
CC(=O)c1c(C)c2cnc(Nc3ccc(N4CCNCC4)cn3)nc2n(C2CCCC2)c1=O [palbociclib] |  |  |  |  |  | decreased MCL-1 expression
